Whole data set: some 33,000 sequences, median “E-score (-0.5 to 0.5)” near -8e-05, cut for the highest 2% near 0.23. The list shows a part of the results.
molecular target: T1, Nrg2 (UniProt P38082); test: PBM E-score (8-mer binding enrichment) (E-score (-0.5 to 0.5)); higher = stronger / more preferred TF binding; conditions: protein concentration: 100 nM; construct: GST-full length
T1 sequence: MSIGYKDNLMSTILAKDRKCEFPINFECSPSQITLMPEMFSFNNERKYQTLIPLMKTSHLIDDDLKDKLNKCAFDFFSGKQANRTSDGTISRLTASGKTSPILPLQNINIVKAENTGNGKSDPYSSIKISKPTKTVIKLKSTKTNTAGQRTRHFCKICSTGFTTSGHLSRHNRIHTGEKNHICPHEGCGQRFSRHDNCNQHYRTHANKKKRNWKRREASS
Procedure, shortened: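 Bound GST-tagged yeast transcription factors, applied at about 100-200 nM to double-stranded universal all-10-mer Agilent arrays, were detected with fluorescent anti-GST. Scans were normalised with masliner. A modified Wilcoxon-Mann-Whitney statistic, the E-score, was assigned to each ungapped eight-base word pooled with its reverse complement by the Universal PBM Analysis Suite.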

Sequence | PBM E-score
ACCGCGTC | 0.00407
GGTGATAC | -0.00965
AAAAGCAG | -0.113
ACACGTGC | -0.0312
CAACGGTA | -0.111
ATAAGGAC | -0.0237
ACGGGAGC | -0.0168
CACAGCAG | -0.0102
TAGGTCCA | 0.0089
CCAGATGA | 0.0477
AATACGTA | 0.158
ATTATCAC | 0.0352
TATCTTAA | 0.0722
GGGGGCGA | -0.261
AGTCTCAC | -0.166
CATGAACG | -0.0607
CTGGCACC | -0.0867
AATCGATT | 0.247
CAGCCACA | 0.132
CCCAAGCC | -0.12
CTGCGTAC | -0.0163
GTGTGTAA | 0.0615
ACGATCGT | 0.0626
AGAACCAC | 0.0965
GTGGGGAA | 0.0999

Sequence | PBM E-score
GGCCTGTA | -0.133
CCTCTTGA | 0.0273
CTGCGCAC | 0.0755
AAGGCCAT | -0.0415
GCCGGTCA | -0.135
GGTGTTAA | 0.025
CGAGTTAC | 0.215
ACCATTGC | -0.00551
GCGAAACA | 0.0688
AGAGGTTC | -0.0296
CTCACGAG | -0.199
CTCAATTC | 0.0503
ATCATGCA | -0.0548
AAATAATG | 0.13
CCGAATAC | 0.0679
GGACGAAC | -0.00928
GCTAAGCA | -0.0969
CACATTGA | 0.0167
AACGTAGT | -0.0644
ATATGGTA | 0.186
CGTTGTAA | -0.119
GTAAGATA | 0.0912
ACCCTGGC | 0.338
TATCAAAA | 0.104
ATATACAA | 0.237

Sequence | PBM E-score
GATCACAA | 0.141
CTCGTCAC | 0.163
ACTACATC | -0.00301
GAAACGGC | -0.00023
CAACTTTA | 0.123
GCCCGAGA | 0.0295
CCAAGCAC | 0.0892
ATTGACCC | -0.0601
ACTCAACG | -0.0402
ATAGGTGG | -0.0621
ACGGCGCT | -0.122
ACTTAAGG | 0.0478
TACGACGA | 0.0241
GGGGCCCA | 0.117
CAAATCAG | 0.0798
CATTCCGA | 0.136
CTGATAGC | -0.148
GGCTCATA | -0.00373
AGCACCTC | -0.105
CCTAAATA | -0.0809
ACCCCAAA | 0.186
ATATTTCA | 0.133
AACAAGGG | 0.157
AAACAAAC | -0.0324
CGCATCAA | 0.103

Sequence | PBM E-score
AAAATGGT | 0.122
CTCCCAAA | 0.0575
AAGATCTG | 0.155
ACATCCCT | 0.177
ATGTCCTA | -0.0411
TGTAGGAA | -0.156
AAGAGCTG | -0.0447
AGGTTGAA | 0.114
CACGTCCC | -0.0652
AAATACCG | -0.0903
AGGCCCAA | -0.0419
CGCCACAG | -0.04
TTATAGAA | 0.0397
AGCAGTCA | -0.0621
ATTGAAAG | 0.137
CCGAAATA | 0.122
CCTGTTTC | 0.0282
ACTTTTGG | 0.138
AAACCGTG | -0.0232
GCCGCATA | 0.231
CCGTTACA | 0.066
CCTGCAGC | -0.0348
TATCCATA | 0.0902
TGCCAACA | 0.0266
AGTTAGTG | 0.0168

Sequence | PBM E-score
AAATAGAT | 0.27
TATCGGGA | 0.114
ACCGGCGA | 0.0609
ACTGTGAT | -0.0884
CATATAGG | -0.0251
TACTGACA | 0.217
ATAAGCAC | -0.0237
CTCTATAA | -0.12
AAACTATC | -0.0765
GGCCAATA | 0.0885
ACATCATC | 0.201
CTGGGTGC | -0.262
CGATTCCG | -0.0572
AGCTTACA | 0.128
CTCGTAGA | -0.239
GGGAGGAA | -0.0983
TAGCGGCA | 0.0381
AAACCAGC | 0.00359
GAAGTGGA | -0.0618
AACGCGGC | 0.0315
CCGGACAA | 0.058
GACCTCCA | -0.0325
TCCGGCGA | 0.0493
GGAGTATA | -0.00591
GTGATCGA | 0.202

An excerpt of these results, as labelled records.
ACTGTGAT
  PBM E-score: -0.0884
CATATAGG
  PBM E-score: -0.0251
TACTGACA
  PBM E-score: 0.217
ATAAGCAC
  PBM E-score: -0.0237

Later entries.

Sequence | PBM E-score
CGGTCTTC | -0.126
CCCATGAG | 0.063
GGAAAGCC | 0.0073
ATGAATGA | 0.0659
TGGTGCAA | -0.222
ATTGGCCA | 0.171
GTCCCTTA | 0.288
AACGACGA | 0.209
GAGAGCTA | 0.0932
ACCGTACA | -0.0836
GAAGATGA | -0.0517
GTACGCCA | -0.168
ACTAAACG | -0.0243
CTGACTAC | -0.0182
ACAAGTAT | 0.166
AAGAGTGC | 0.0243
TCAAGGAA | 0.116
AGTGGTAT | 0.0955
AATCGCCA | 0.0545
TCCCGAAA | -0.0707
AGACTTAC | -0.21
ATGCTCCG | -0.347
ACCACCCA | -0.0198
AATTTGGT | 0.164
ACAGGTAA | -0.00823

Quoted from the listing (5 entries):
Sequence | PBM E-score
GTCCCTTA | 0.288
AACGACGA | 0.209
GAGAGCTA | 0.0932
ACCGTACA | -0.0836
GAAGATGA | -0.0517

(cont.)

Sequence | PBM E-score
AATGGATG | 0.0757
AATGTTTC | -0.0936
ACACAACA | -0.0995
GTTCTGGA | -0.129
GTGGGGGA | -0.305
GATATAAC | 0.105
CTTCCCAA | -0.109
CGATTGGC | 0.00573
ATCACCCG | 0.0954
CTCCAGCC | -0.172
CTCGTCCC | 0.0549
ACCTTTCG | 0.0316
ATTATTTG | 0.127
GGCGAGTA | 0.0611
ATATCTCA | 0.238
GAGGCTGA | -0.157
ACCCACGA | 0.143
GTGACTAA | 0.00745
GCCTAAGA | -0.0546
GAGTCCGA | 0.0485
TACGAGTA | 0.0605
TCTCCTCA | -0.16

Two entries drawn at random from the list so far:
Sequence | PBM E-score
AATGTTTC | -0.0936
GAGTCCGA | 0.0485
